Experiments:
peptide synthesis = conditions: cyclisation step
[1] = general procedure: peptide synthesis; chemically modified PEGA resin; EDC/HOAt (cyclisation); conditions: cyclisation step

| Substance | cyclisation yield (peptide synthesis) [%] | cyclisation yield [1] [%] |
| --- | --- | --- |
| M F L N V SGW | 73 |  |
| R Y F N V C |  | 64 |

Reference: patent US20060078875A1 (The Penn State Research Foundation, priority 2004, published 2006)
